Assay results reported in article PMC3852661, “Structural basis of SUFU–GLI interaction in human Hedgehog signalling regulation” (Acta Crystallographica Section D: Biological Crystallography, 2013).

Chains of the proteins cited; added tags and fusions are not shown. Lines headed by an entry give the natural chain unless they say otherwise; changes in a name come on top.
UniProt P08151: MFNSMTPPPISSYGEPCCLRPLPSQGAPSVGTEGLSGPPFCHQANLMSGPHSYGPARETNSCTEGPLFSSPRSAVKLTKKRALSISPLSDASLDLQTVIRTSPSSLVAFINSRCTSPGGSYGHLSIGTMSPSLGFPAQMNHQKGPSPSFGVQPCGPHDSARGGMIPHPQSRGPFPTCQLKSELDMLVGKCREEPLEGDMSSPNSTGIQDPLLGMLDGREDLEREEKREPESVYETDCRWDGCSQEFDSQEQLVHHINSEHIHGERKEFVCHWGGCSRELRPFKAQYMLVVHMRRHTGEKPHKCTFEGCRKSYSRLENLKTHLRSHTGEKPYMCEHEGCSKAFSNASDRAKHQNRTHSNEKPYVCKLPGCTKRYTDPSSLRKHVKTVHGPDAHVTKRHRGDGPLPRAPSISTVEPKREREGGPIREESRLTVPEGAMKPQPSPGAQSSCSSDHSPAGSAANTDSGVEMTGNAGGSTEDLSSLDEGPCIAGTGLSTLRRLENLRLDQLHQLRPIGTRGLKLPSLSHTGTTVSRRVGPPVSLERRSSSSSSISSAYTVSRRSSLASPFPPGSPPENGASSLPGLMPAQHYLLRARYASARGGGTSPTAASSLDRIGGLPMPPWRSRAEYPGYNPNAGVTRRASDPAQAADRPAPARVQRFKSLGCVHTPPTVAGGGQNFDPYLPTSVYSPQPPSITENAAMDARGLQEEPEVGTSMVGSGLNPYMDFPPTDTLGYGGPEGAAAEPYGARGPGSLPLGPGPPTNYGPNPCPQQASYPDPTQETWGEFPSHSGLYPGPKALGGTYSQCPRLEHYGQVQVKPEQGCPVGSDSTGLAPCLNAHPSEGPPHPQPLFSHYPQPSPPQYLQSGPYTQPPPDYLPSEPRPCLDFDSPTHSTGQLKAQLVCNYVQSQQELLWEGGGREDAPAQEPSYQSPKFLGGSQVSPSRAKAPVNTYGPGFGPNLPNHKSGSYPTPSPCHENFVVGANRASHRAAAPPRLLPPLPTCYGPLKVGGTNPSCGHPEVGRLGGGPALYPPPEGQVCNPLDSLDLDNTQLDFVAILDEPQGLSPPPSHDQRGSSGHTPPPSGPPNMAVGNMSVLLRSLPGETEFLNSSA
UniProt Q9UMX1: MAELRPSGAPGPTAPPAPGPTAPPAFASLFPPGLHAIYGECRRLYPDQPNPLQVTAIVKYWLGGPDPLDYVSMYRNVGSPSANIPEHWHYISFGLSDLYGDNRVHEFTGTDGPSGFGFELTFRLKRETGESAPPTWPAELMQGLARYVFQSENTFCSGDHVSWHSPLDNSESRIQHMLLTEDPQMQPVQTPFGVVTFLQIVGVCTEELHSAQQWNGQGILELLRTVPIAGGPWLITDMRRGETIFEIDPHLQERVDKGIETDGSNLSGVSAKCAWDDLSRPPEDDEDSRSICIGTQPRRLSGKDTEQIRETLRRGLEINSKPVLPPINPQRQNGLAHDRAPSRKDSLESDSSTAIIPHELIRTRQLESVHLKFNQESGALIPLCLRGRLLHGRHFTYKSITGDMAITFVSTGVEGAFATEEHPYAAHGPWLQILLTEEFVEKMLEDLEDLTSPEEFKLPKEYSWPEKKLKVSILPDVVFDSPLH

Target: C-terminally FLAG-tagged GLI1 (human) (UniProt P08151)
Experiment: co-IP; Cos-7 cells transfected separately with GLI1-FLAG and Myc-SUFU; normalized lysates combined and pre-incubated 6 h; anti-FLAG M2 and anti-Myc 9b11 agarose, 16 h; Western blot

## SUFU-Δ (from UniProt Q9UMX1)
  binding: binds

These are yes or no findings as the source states them, for the method shown. Binding seen in cells or lysates may run through a third protein. Binding calls can cover weak binding; strength is not graded here.
